PubChem BioAssay AID743402 (Broad Institute, 2014)
Screen size: about 1,200 compounds; about 140 (12%) were called active.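 How the source made its calls: active means fitted curve falls past -35% activity change at a dose under twice the top valid dose, in every replicate test; inconclusive means replicate tests disagree on the call; inactive means the rest, including activity in the opposite direction.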 This part holds few or none of the hits.

Experiment: CFTR-F508del correctors, dose response, FRT cells, YFP quenching, cherry-pick (AID 743402);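 further: compounds act as correctors raising surface CFTR-F508del before acute activation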
Settings: FRT CFTR-F508del YFP iodide quenching, 24 h, channel opened with forskolin and a potentiator; at 26 µM (top of the series) unless noted

Activity change, negative = more quenching (active), inactive:
CCOC(=O)c1[nH]c(C)c(/C(O)=C2\C(=O)C(=O)N(CCCN3CCOCC3)C2c2cccs2)c1C (configuration not stated) 7.42%
O=C1c2ccccc2C(=O)N1Cc1cnc(N2CCN(c3ccccc3)CC2)s1 9.58%
COCOc1cccc(CN2CCC2(C)C(=O)Nc2ccc(C)c(O)c2)c1 (configuration not stated) 7.14%
Cc1cccc(Nc2nc(N)nc(-c3oc4ccccc4c3C)n2)c1 3.33%
COc1nc(N)nc(NC(=O)c2cccs2)c1N=O 0%
CC(=O)c1cccc(Nc2c3c(nc4ccccc24)CCC3)c1 19.4%
COc1ccc(S(=O)(=O)Nc2ccc3c(c2)C(=O)N([C@H](C)CO)C[C@@H](C)[C@@H](CN(C)Cc2ccc(Cl)c(Cl)c2)O3)cc1 3.12%
O=C(CSc1nc2ccccc2n1-c1ccccc1)Nc1ncc(Cl)cc1Cl -10%
O=C(C[C@@H]1CC[C@H]2[C@@H](COC[C@H](O)CN2Cc2ccc3c(c2)OCO3)O1)Nc1ccc(-c2ccccc2)cc1 21.4% [at 2.85 µM]
O=C(c1[nH]ncc1-c1cccc(Br)c1)C1CO1 (configuration not stated) 3.33%
COc1cc(OC)c2c(-c3cccc(-c4cccc(N)c4)c3)cc(=O)oc2c1 -3.33%
CCN(C(=O)COC(=O)c1cc2c(s1)CCCC2)c1c(N)n(Cc2ccccc2)c(=O)[nH]c1=O 16.7%
N#CC1c2ccccc2-c2ccccc2N1C(=O)c1ccccc1 (configuration not stated) 3.33%
CC(=O)c1cc(NC(=O)c2cccc(C(F)(F)F)c2)c(=O)oc1C 20%
CC(=O)NC(c1ccc(C(C)C)cc1)c1ccc2cccnc2c1O (configuration not stated) 13.9%
COCCNC(=O)C1CCCN(C(=O)c2cc(-c3cccs3)oc2C)CC1 (configuration not stated) 13.3%
Cc1ccc(-c2ccc3c(c2)O[C@H](CN(C)C(=O)Nc2ccc(C(F)(F)F)cc2)[C@H](C)CN([C@@H](C)CO)S3(=O)=O)cc1 0%
CC(C)C[C@H]1CN([C@@H](CC(C)C)CN2CCC[C@@H]2CN2C(=S)NC[C@@H]2Cc2ccc(O)cc2)C(=S)N1CCc1ccccc1 15.6%
O=C1c2cccc3c(O)ccc(c23)C(=O)N1c1ccc(Cl)cc1 -29%
N#CCC(=O)N/N=C/c1cn(Cc2cccc3ccccc23)c2ccccc12 9.79%
COc1ccc(C(C#N)CC(=O)c2ccc3c(c2)OCO3)cc1OC (configuration not stated) 16.7%
O=C(Nc1ccccc1)N1C[C@H]2[C@@H](c3ccccc31)[C@H](CO)N2C(=O)c1ccccn1 21.4%
C/C=C/c1ccc([C@@H]2[C@H](CO)N(CC3CC3)[C@H]2CNC(=O)c2ccccc2)cc1 3.33% [at 23.5 µM]
C[C@@H]1CN([C@H](C)CO)S(=O)(=O)c2ccc(C#CC3CC3)cc2O[C@H]1CN(C)Cc1ccccn1 6.46%
Cc1c(C(=O)N/N=C/c2c(O)ccc3ccccc23)nnn1-c1nonc1N 3.33%
COc1ccccc1N1CCN(/N=C/C=C\c2ccccc2[N+](=O)[O-])CC1 13.3%
O=C(N/N=C/c1cccs1)c1cc(C2CC2)nc2ccccc12 13.3%
COc1ccc2c(c1)/C(=C/c1cc(OC)c(OC)c(OC)c1)C(=O)N2 20.2%
CCCCn1c(CN2CCN(c3cccc(Cl)c3)CC2)nc2c1c(=O)[nH]c(=O)n2C 15.6%
COc1ccccc1S(=O)(=O)N1CC[C@@H]2[C@@H](CO)N(C)c3ccc(-c4ccc(F)cc4)cc3[C@@H]21 -20.1% [at 23.5 µM]
O=C(c1cccc(S(=O)(=O)N2CCN(c3ccc(F)cc3)CC2)c1)N1CCCC(C(F)(F)F)C1 (configuration not stated) 6.67%
CCc1nc(N)nc(N)c1-c1ccc(Cl)c([N+](=O)[O-])c1 6.97%
COc1cccc(-c2ccc([C@H]3[C@@H](CO)N(C(=O)c4ccccn4)[C@H]3C#N)cc2)c1 19.3%
Clc1ccc2c(c1)-c1ccccc1C1=NCCN12 -1.51%
COc1ccc(-c2nc(-c3cccc(C)c3)no2)cc1OC 10%
O=C(NCCOc1ccccc1F)c1cc([N+](=O)[O-])ccc1N1CCOCC1 23.3%
O=C(COC(=O)Cc1ccsc1)Nc1cccc(F)c1 3.33%
O=S(=O)(Cc1ccc(Cl)cc1Cl)c1ccc(Cl)cc1 -22.5%
CCN(CC)c1ccc(/C=N/NC(=O)c2cnccn2)cc1 -23.3%
Cc1cc(C)c(C(=O)NC2CCCc3c2cnn3-c2cccc(C)c2C)o1 (configuration not stated) 23.9%
Cc1ccccc1-c1nc(CS(=O)(=O)CC(=O)NCc2ccccc2)c(C)o1 8.28%
CC(C)NC(=O)c1ccc(COc2cccc3ccccc23)o1 6.97%
Cc1ccc2[nH]c(-c3ccccc3)cc(=O)c2c1 -12.5%
Cc1cc(C(=O)CN2CCN(CC(=O)Nc3ccc(F)cc3)CC2)c(C)n1C1CC1 13.1%
CCOC(=O)c1c(NC(=O)C(=O)N/N=C/c2ccccc2O)sc2c1CCCCC2 0.208%
COc1cc(C(=O)Nc2ccccc2C(=O)Nc2ccccn2)cc(OC)c1OC 19.4%
Oc1ccc(/C=N/Nc2nc(-c3ccccc3F)nc3ccccc23)c(O)c1 3.33%
C/C=C/c1ccc([C@@H]2[C@H](CO)N3CCCCN(S(=O)(=O)c4ccccc4)C[C@@H]23)cc1 7.14%
COc1ccccc1NS(=O)(=O)c1cc(C(=O)N2CCCCCC2)ccc1C 8.99%
O=Cc1ccccc1OCc1ccc2c(c1)OCO2 -6.97%
CC(C)C[C@H]1CN([C@@H](Cc2ccc(O)cc2)CN2CCC[C@H]2CN2C(=O)C(=O)NC[C@@H]2Cc2ccccc2)C(=O)C(=O)N1CC1CCCCC1 33.5%
CC(=O)Nc1ccc(S(=O)(=O)NC2=C(N3CCN(Cc4ccccc4)CC3)C(=O)c3ccccc3C2=O)cc1 19.4%
COC(=O)C1=CN(c2ccc(OC)cc2OC)C(N)=C(C#N)C1c1ccccc1F (configuration not stated) 6.46%
CC(=O)NC(=S)Nc1ccc(NC(=S)NC(=O)/C=C/c2ccco2)cc1 -1.61%
CCOC(=O)c1c(C)[nH]c(C(=O)N/N=C\c2ccccc2O)c1C -6.25%
COc1ccc(C2CN=NC23CCc2ccccc2C3=O)cc1 (configuration not stated) 13.3%
CC(=O)Oc1c(C)cc(Cl)cc1C(=O)Nc1ccc([N+](=O)[O-])cc1Cl 10%
COc1ccc2c(c1)c(CC(=O)OCC(=O)O)c(C)n2C(=O)c1ccc(Cl)cc1 -3.12%
c1ccc2c(c1)N1CCCN=C1N2CCN1CCCCC1 6.67%
Cc1noc(NS(=O)(=O)c2ccc(N/C=C\C(=O)c3ccccc3)cc2)c1C 6.46%
COc1ccc2c3c([nH]c2c1)[C@@H](CO)N(C(=O)C1CCOCC1)CC31CCN(Cc2cccc(F)c2)CC1 -9.58%
Cc1c(Cl)cccc1NC(=O)C1CC(=O)N(C2CCCC2)C1 (configuration not stated) 9.79%
O=C1c2ccccc2C(=O)c2c1cccc2N(CCO)CCO -5.56%
CCNC(=O)C1CCCN(C(=O)c2cc(F)ccc2C)CC1 (configuration not stated) -1.61%
COc1ccccc1C(=O)Nc1ccc2c(c1)nc(CCNC(=O)c1ccco1)n2C -0.446%
CCCc1nc2ccccc2c(C(=O)OCC(=O)NCc2ccc3c(c2)OCO3)c1CC 3.57%
COc1ccccc1C(=O)NC(=S)/C=C1/N(C)c2ccccc2C1(C)C -3.33%
COc1ccc2c(c1)C(=O)CC(c1ccc3c(c1)OCCO3)O2 (configuration not stated) 14.3%
C[C@H]1CCCCO[C@H](CN(C)C(=O)Cc2ccccc2)[C@@H](C)CN([C@@H](C)CO)C(=O)c2cc(N(C)C)ccc2O1 8.74%
C[C@H]1CN([C@@H](C)CO)S(=O)(=O)c2ccc(/C=C/c3ccccc3)cc2O[C@@H]1CN(C)C(=O)Nc1ccc(F)cc1 7.14%
COc1cccc(/C=N/NC(=O)C(=O)Nc2ccccc2OC(F)(F)C(F)F)c1O 8.28%
CN1c2ccc(-c3ccc(F)cc3)cc2[C@H]2[C@H](CCN2S(=O)(=O)c2ccc(F)cc2)[C@@H]1CO -7.14%
Nc1[nH]c(C(=O)c2ccccc2)c(-c2ccccc2C(F)(F)F)c1C(=O)NCCc1c[nH]c2ccccc12 31.2%
O=C(CC1Sc2ccccc2NC1=O)NNc1cccc(Cl)c1Cl (configuration not stated) 6.67%
CC(=O)Nc1cccc(-c2ccnc3c2CC(C)(C(=O)NCc2cccs2)O3)c1 (configuration not stated) -6.67%
O=C(CSC1=NNC(c2ccccn2)S1)Nc1ccccc1 (configuration not stated) 16.2%
CCc1ccc(-c2nc(C(N)=O)c3[nH]c(=O)n(-c4ccccc4OC)c3n2)cc1 -12.9%
O=C1C=CCC(/C=C/c2ccccc2)O1 (configuration not stated) 16.7%
Cc1ccc(NC(=O)CSC2=NN3CCCC(=O)N=C3S2)c(C)c1 13.3%
CCCCNC(=O)c1onc(CSc2ccccc2C)c1C(=O)O 6.67%
COc1ccccc1/C=N/NC(=O)c1cc2c(OC)c(OC)ccc2[nH]1 20%
COc1ccc(NC(=O)N(C)C[C@@H]2Oc3cc(C#CCC(C)C)ccc3S(=O)(=O)N([C@H](C)CO)C[C@@H]2C)cc1 19.4%

3 compounds already listed, arranged by molecular weight, falling.
Activity change, negative = more quenching (active), inactive:
COc1ccc(C2CN=NC23CCc2ccccc2C3=O)cc1 (configuration not stated) 13.3%
c1ccc2c(c1)N1CCCN=C1N2CCN1CCCCC1 6.67%
COc1nc(N)nc(NC(=O)c2cccs2)c1N=O 0%

Compounds shown so far containing an aryl thioether with sulfur outside any ring (two):
Activity change, negative = more quenching (active), inactive:
O=C(CSc1nc2ccccc2n1-c1ccccc1)Nc1ncc(Cl)cc1Cl -10%
CCCCNC(=O)c1onc(CSc2ccccc2C)c1C(=O)O 6.67%
